Measured values reported in US20060234909A1 (priority 2003, published 2006).

Key:
[1] = general procedure: Fmoc solid-phase peptide synthesis; Wang resin (4-alkoxybenzyl alcohol resin); 2-Cl-trityl resin
[2] = general procedure: Fmoc solid-phase peptide synthesis; Fmoc-Lys(Z)-Wang resin; details: whole synthesis, scale 0.25 mmol
[3] = general procedure: Fmoc solid-phase peptide synthesis; Fmoc-Gly-Wang resin; details: whole synthesis, scale 0.25 mmol
[4] = general procedure: Fmoc solid-phase peptide synthesis; H-Lys(Boc)-2-Cl-trityl resin; details: whole synthesis, scale 0.25 mmol
[5] = general procedure: Fmoc solid-phase peptide synthesis; Fmoc-Arg(pbf)-Wang resin; details: whole synthesis, scale 0.25 mmol
[6] = whole synthesis, scale of the general procedure 0.25 mmol

Pv-RLVAYE(Bzl)GYV-PEG(13)-10Ca-PXL x TFA
final purity (method not given) ([1]; conjugation step, TFA): 99%

Pv-EYIYGSFR-PEG(13)-10Ca-PXL (N-terminal Pv, PEG(13) linker, paclitaxel conjugate)
final purity (method not given) ([1]; conjugation step): 98%

Ac-E(OBz1)YIYGSFK(Z)-OH
isolated mass [2]: an average 85 mg
final purity (method not given) [1, 6]: >95%
isolated yield [1, 6]: 26.7%

H-GIYWHHY-ALK(6)-7Ca-PXL x HCl
final purity (method not given) ([1]; conjugation step, HCl): >90%

Pv-YIYGSFR-PEG(13)-10Ca-PXL x TFA
final purity (method not given) ([1]; conjugation step, TFA, run 1): >95%
final purity (method not given) ([1]; conjugation step, TFA, run 2): 91%
final purity (method not given) ([1]; conjugation step, TFA, run 3): 95%

Ac-YIYGSFK-PEG(13)-10Ca-PXL x TFA (N-acetyl; PEG(13) linker; paclitaxel conjugate)
final purity (method not given) ([1]; conjugation step, TFA): 97%

CBz-RPRTSSF-PEG(13)-10Ca-PXL x 2TFA (N-CBz; PEG(13) linker; paclitaxel conjugate)
final purity (method not given) ([1]; conjugation step, 2TFA): 99%

H-YIYGSFK-ALK(6)-10Es-PXL x 2 HCl (alkyl linker; paclitaxel ester conjugate)
final purity (method not given) ([1]; conjugation step, 2 HCl): >95%

Ac-EYIYGSFR-PEG(13)-10Ca-PXL (N-acetyl, PEG13, paclitaxel conjugate)
final purity (method not given) ([1]; conjugation step): 88%

Pv-YIFGSFR-PEG(13)-10Ca-PXL x TFA (N-terminal Pv, PEG(13) linker, paclitaxel conjugate)
final purity (method not given) ([1]; conjugation step, TFA): 98%

Pv-GRPRTSSFAE(OBz1)G-OH
isolated mass [3]: 87 mg
final purity (method not given) [1, 6]: >95%
isolated yield [1, 6]: 26.0%

Pv-GRPRTSSFAE(Odmab)G-OH
isolated mass [3]: 49 mg
final purity (method not given) [1, 6]: 90%
isolated yield [1, 6]: 12.6%

Pv-ARDIKYD-PEG(13)-10Ca-PXL x 2TFA
final purity (method not given) ([1]; conjugation step, 2TFA): 94%

Ac-E(Bzl)YIYGSFK(CBz)-PEG(13)-10Ca-PXL (EYIYGSFK)
final purity (method not given) ([1]; conjugation step): 90%

Ac-EYIFGSFK-PEG(13)-10Ca-PXL x TFA (N-acetyl, PEG13, paclitaxel conjugate)
final purity (method not given) ([1]; conjugation step, TFA): 94%

Ac-RPRTSSF-PEG(13)-10Ca-PXL x 2TFA (N-acetyl; PEG(13) linker; paclitaxel conjugate)
final purity (method not given) ([1]; conjugation step, 2TFA): 98%

Pv-RSRTSSFAEG-PEG(13)-10Ca-PXL x 2TFA (N-terminal Pv, PEG(13) linker, paclitaxel conjugate)
final purity (method not given) ([1]; conjugation step, 2TFA): 93%

CBz-YIYGSFK(CBz)-ALK(6)-10Es-PXL (N-CBz; CBz side chain; alkyl linker; paclitaxel conjugate)
final purity (method not given) ([1]; conjugation step): >95%

H-GIYWHHY-ALK(5)-7Es-PXL
final purity (method not given) ([1]; conjugation step): >90%

BOC-RPRTSSF-PEG(13)-10Ca-PXL x 2TFA (N-BOC; PEG(13) linker; paclitaxel conjugate)
final purity (method not given) ([1]; conjugation step, 2TFA): 98%

Z-YIYGSFK(B)-OH
isolated mass [4]: an average 162 mg
final purity (method not given) [1, 6]: >95%
isolated yield [1, 6]: 58.4%

Pv-E(Bzl)YIYGSFK(CBz)-PEG(13)-10Ca-PXL x TFA (EYIYGSFK)
final purity (method not given) ([1]; conjugation step, TFA): 95%

Pv-GRPRAAAFAEG-PEG(13)-10Ca-PXL x 2TFA (N-terminal Pv, PEG(13) linker, paclitaxel conjugate)
final purity (method not given) ([1]; conjugation step, 2TFA): 95%

Ac-RSRTSSF-PEG(13)-10Ca-PXL x 2TFA (N-acetyl; PEG(13) linker; paclitaxel conjugate)
final purity (method not given) ([1]; conjugation step, 2TFA): 99%

Pv-RLVAYEGYV-PEG(13)-10Ca-PXL (N-terminal Pv, PEG(13) linker, paclitaxel conjugate)
final purity (method not given) ([1]; conjugation step): 95%

Pv-GRPRTSSFAE(Bzl)G-PEG(13)-10Ca-PXL x 2TFA (GRPRTSSFAEG)
final purity (method not given) ([1]; conjugation step, 2TFA): 95%

Pv-RSRKESY-PEG(13)-10Ca-PXL x 2TFA (N-terminal Pv, PEG(13) linker, paclitaxel conjugate)
final purity (method not given) ([1]; conjugation step, 2TFA): 99%

Ac-EYIYGSFK(CBz)-PEG(13)-10Ca-PXL (N-acetyl, CBz, PEG13, paclitaxel conjugate)
final purity (method not given) ([1]; conjugation step): 95%

Ac-YIYGSFR-PEG(13)-10Ca-PXL x TFA (N-acetyl; PEG(13) linker; paclitaxel conjugate)
final purity (method not given) ([1]; conjugation step, TFA): 98%

HO—RFSGYIY—NHPv
final purity (method not given) [1, 6]: >95%
isolated yield [1, 6]: 60.7%
isolated mass [5]: an average 150 mg

Pv-GRSRTSSFAEG-PEG(13)-10Ca-PXL x 2TFA (N-terminal Pv, PEG(13) linker, paclitaxel conjugate)
final purity (method not given) ([1]; conjugation step, 2TFA): 99%

CBz-GIYWHHY-ALK(6)-7Ca-PXL
final purity (method not given) ([1]; conjugation step): >95%
